Source: the supplement of paper PMC12823440, “Inhibitors supercharge kinase turnover through native proteolytic circuits” (Nature, 2025)
Counter-ions that a name gives are not always drawn. Some of the results follow. Hit calls seldom repeat between salt and free forms of one compound.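 In K562 cells expressing nanoluciferase-fused kinases, luminescence was recorded at 4 h intervals between 2 and 18 h, normalized as percent of control with DMSO at 100% and a positive control at 0%. A significant (2 sigma) signal drop marks a time point as decreased. The authors' rule for a hit is not shown and takes in more than the number of time points.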

The compounds below were run against CDK2 (UniProt P24941) (assay: number of time points (of 5) at which kinase-Nluc abundance scored as decreased, DMSO-normalised (count); higher = more persistent destabilization). Conditions: K562; 2-18 h.

| Compound | number of time points |
| --- | --- |
| Cn1c(N2CCO[C@@H](c3ccc(F)cc3)C2)nc(-c2ccncn2)cc1=O (10 µM) | 0 |
| C[C@@H](NC(=O)c1ncnc(N)c1Cl)c1ncc(C(=O)Nc2cc(C(F)(F)F)c(Cl)cn2)s1 (2.5 µM) | 0 |
| CO/N=C1/C(c2c(O)[nH]c3cc(Cl)c(Cl)cc23)=Nc2ccccc21 (10 µM) | 0 |
| Cc1n[nH]c2ncc(C(=O)N3CCC[C@H]3c3ccc(Cl)cc3)cc12 (10 µM) | 0 |
| Cc1ccc(Nc2cc(N[C@@H]3CCCC[C@@H]3N)nnc2C(N)=O)nc1C (2 µM) | 0 |
| NC(=O)c1cnc(N[C@@H]2CCCC[C@@H]2N)nc1Nc1cccc(-n2nccn2)c1 (2.5 µM) | 0 |
| CCc1c(C(=O)NNC(=O)[C@H](O)c2cc(F)cc(F)c2)ccc(O)c1C (10 µM) | 0 |
| CC/C(=C(\c1ccccc1)c1ccc(OCCNC)cc1)c1ccccc1 [N-Desmethyltamoxifen (hydrochloride)] (2.5 µM) | 0 |
| CCCCNc1ncc(C(=O)NCc2ccc(-n3ccnc3)cc2)c(NC2CCC(O)CC2)n1 (stereo not drawn) (10 µM) | 0 |
| Oc1ccc(-c2cnc3ccc(NCc4ccco4)nn23)cc1 [IRAK inhibitor 2] (2.5 µM) | 1 |
| CS(=O)(=O)c1ccc([C@@H](CC2CCCC2)C(=O)Nc2nccs2)cc1 (10 µM) | 0 |
| CC(=O)O/N=C1/C(c2c(O)[nH]c3cc(Br)ccc23)=Nc2ccccc21 [BIO-acetoxime] (10 µM) | 0 |
| COc1cc2nc(-c3cc(F)ccc3O)nc(N[C@@H]3CNC[C@H]3C(C)(C)O)c2cc1OC (2.5 µM) | 0 |

Part of the list above, comma-delimited:
Compound,number of time points
Cn1c(N2CCO[C@@H](c3ccc(F)cc3)C2)nc(-c2ccncn2)cc1=O (10 µM),0
C[C@@H](NC(=O)c1ncnc(N)c1Cl)c1ncc(C(=O)Nc2cc(C(F)(F)F)c(Cl)cn2)s1 (2.5 µM),0
